Experimental data: patent publication US12441760 (dated 2025)

Experiments:
[1] = general procedure: Fmoc solid-phase peptide synthesis; Gly-O-CTC resin; DIC/HOBt; settings: whole synthesis, scale 1.0 mmol
[2] = general procedure: Fmoc solid-phase peptide synthesis; H-Gly-OCTC resin; DIC/HOBt; settings: whole synthesis, scale 1.0 mmol
[3] = general procedure: Fmoc solid-phase peptide synthesis; Fmoc-Lys(Trt-Glu-OtBu)-O-CTC-resin; DIC/HOBt; settings: whole synthesis, scale 0.24 mmol

In the case of “Erythropoietin 1-28 Thioester Modified with 2-oxo-5-(17-oxooctadecanamido)hexanedioyl Ile-Ile”, the “crude HPLC purity” value ([1]; HPLC) is reported as 82%, the crude mass [1] is reported as 3.13 g and the crude yield [1] is reported as 96.4%.

With “GLP-1 (7-37) Modified at the Side Chain of Lys^26 with 2-(6-(8-(1-carboxy-2-methylpropylamino)-8-oxooctylthio)hexanamido)pentanedioic Acid” the “crude purity (method not given)” value ([2]; HPLC) was 77%, the “final HPLC purity” value ([2]; HPLC) was 99.6% and the isolated mass [2] was 2.51 g. It also gave an isolated yield [2] of 63%.

With “Partially Protected N^εB29—(H-Glu-OtBu) Des B30 Human Insulin B-Chain” the crude mass [3] was 1.24 g and the crude yield [3] was 83.2%.
